# From publication PMC8564014
# Protein sequences, listed by entry. Tags and fused reporters are not part of them.
# UniProt Q13114: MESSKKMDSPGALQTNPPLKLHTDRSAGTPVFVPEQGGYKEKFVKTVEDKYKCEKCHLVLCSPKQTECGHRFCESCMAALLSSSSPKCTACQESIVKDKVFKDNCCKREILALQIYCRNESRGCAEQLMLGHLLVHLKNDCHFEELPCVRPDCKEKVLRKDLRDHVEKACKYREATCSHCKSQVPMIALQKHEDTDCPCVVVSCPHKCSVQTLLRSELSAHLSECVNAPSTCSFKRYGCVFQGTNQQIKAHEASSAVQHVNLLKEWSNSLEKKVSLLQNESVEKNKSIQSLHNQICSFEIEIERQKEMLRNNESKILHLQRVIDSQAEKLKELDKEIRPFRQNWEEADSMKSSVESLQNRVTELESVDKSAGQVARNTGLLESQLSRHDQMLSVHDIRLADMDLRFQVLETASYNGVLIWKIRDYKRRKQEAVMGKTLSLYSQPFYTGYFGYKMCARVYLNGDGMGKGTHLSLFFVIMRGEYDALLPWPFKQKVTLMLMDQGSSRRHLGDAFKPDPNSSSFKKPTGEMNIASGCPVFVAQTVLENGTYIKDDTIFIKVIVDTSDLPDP
# B1: SLC4A7 (protein, UniProt Q9Y6M7 1-1214)
# chain: MERFRLEKKLPGPDEEAVVDLGKTSSTVNTKFEKEELESHRAVYIGVHVPFSKESRRRHRHRGHKHHHRRRKDKESDKEDGRESPSYDTPSQRVQFILGTEDDDEEHIPHDLFTEMDELCYRDGEEYEWKETARWLKFEEDVEDGGDRWSKPYVATLSLHSLFELRSCILNGTVMLDMRASTLDEIADMVLDNMIASGQLDESIRENVREALLKRHHHQNEKRFTSRIPLVRSFADIGKKHSDPHLLERNGEGLSASRHSLRTGLSASNLSLRGESPLSLLLGHLLPSSRAGTPAGSRCTTPVPTPQNSPPSSPSISRLTSRSSQESQRQAPELLVSPASDDIPTVVIHPPEEDLEAALKGEEQKNEENVDLTPGILASPQSAPGNLDNSKSGEIKGNGSGGSRENSTVDFSKVDMNFMRKIPTGAEASNVLVGEVDFLERPIIAFVRLAPAVLLTGLTEVPVPTRFLFLLLGPAGKAPQYHEIGRSIATLMTDEIFHDVAYKAKDRNDLLSGIDEFLDQVTVLPPGEWDPSIRIEPPKSVPSQEKRKIPVFHNGSTPTLGETPKEAAHHAGPELQRTGRLFGGLILDIKRKAPFFLSDFKDALSLQCLASILFLYCACMSPVITFGGLLGEATEGRISAIESLFGASLTGIAYSLFAGQPLTILGSTGPVLVFEKILYKFCRDYQLSYLSLRTSIGLWTSFLCIVLVATDASSLVCYITRFTEEAFAALICIIFIYEALEKLFDLGETYAFNMHNNLDKLTSYSCVCTEPPNPSNETLAQWKKDNITAHNISWRNLTVSECKKLRGVFLGSACGHHGPYIPDVLFWCVILFFTTFFLSSFLKQFKTKRYFPTKVRSTISDFAVFLTIVIMVTIDYLVGVPSPKLHVPEKFEPTHPERGWIISPLGDNPWWTLLIAAIPALLCTILIFMDQQITAVIINRKEHKLKKGAGYHLDLLMVGVMLGVCSVMGLPWFVAATVLSISHVNSLKVESECSAPGEQPKFLGIREQRVTGLMIFILMGLSVFMTSVLKFIPMPVLYGVFLYMGVSSLKGIQLFDRIKLFGMPAKHQPDLIYLRYVPLWKVHIFTVIQLTCLVLLWVIKVSAAAVVFPMMVLALVFVRKLMDLCFTKRELSWLDDLMPESKKKKEDDKKKKEKEEAERMLQDDDDTVHLPFEGGSLLQIPVKALKYSPDKPVSVKISFEDEPRKKYVDAETSL
# B2: DBI (protein, UniProt P07108 1-87)
# chain: MSQAEFEKAAEEVRHLKTKPSDEEMLFIYGHYKQATVGDINTERPGMLDFTGKAKWDAWNELKGTSKEDAMKAYINKVEELKKKYGI
# B3: ALDH3A1 (protein, UniProt P30838 1-453)
# chain: MSKISEAVKRARAAFSSGRTRPLQFRIQQLEALQRLIQEQEQELVGALAADLHKNEWNAYYEEVVYVLEEIEYMIQKLPEWAADEPVEKTPQTQQDELYIHSEPLGVVLVIGTWNYPFNLTIQPMVGAIAAGNSVVLKPSELSENMASLLATIIPQYLDKDLYPVINGGVPETTELLKERFDHILYTGSTGVGKIIMTAAAKHLTPVTLELGGKSPCYVDKNCDLDVACRRIAWGKFMNSGQTCVAPDYILCDPSIQNQIVEKLKKSLKEFYGEDAKKSRDYGRIISARHFQRVMGLIEGQKVAYGGTGDAATRYIAPTILTDVDPQSPVMQEEIFGPVLPIVCVRSLEEAIQFINQREKPLALYMFSSNDKVIKKMIAETSSGGVAANDVIVHITLHSLPFGGVGNSGMGSYHGKKSFETFSHRRSCLVRPLMNDEGLKVRYPPSPAKMTQH
# B4: PRKG2 (protein, UniProt Q13237 1-762)
# chain: MGNGSVKPKHSKHPDGHSGNLTTDALRNKVTELERELRRKDAEIQEREYHLKELREQLSKQTVAIAELTEELQNKCIQLNKLQDVVHMQGGSPLQASPDKVPLEVHRKTSGLVSLHSRRGAKAGVSAEPTTRTYDLNKPPEFSFEKARVRKDSSEKKLITDALNKNQFLKRLDPQQIKDMVECMYGRNYQQGSYIIKQGEPGNHIFVLAEGRLEVFQGEKLLSSIPMWTTFGELAILYNCTRTASVKAITNVKTWALDREVFQNIMRRTAQARDEQYRNFLRSVSLLKNLPEDKLTKIIDCLEVEYYDKGDYIIREGEEGSTFFILAKGKVKVTQSTEGHDQPQLIKTLQKGEYFGEKALISDDVRSANIIAEENDVACLVIDRETFNQTVGTFEELQKYLEGYVANLNRDDEKRHAKRSMSNWKLSKALSLEMIQLKEKVARFSSSSPFQNLEIIATLGVGGFGRVELVKVKNENVAFAMKCIRKKHIVDTKQQEHVYSEKRILEELCSPFIVKLYRTFKDNKYVYMLLEACLGGELWSILRDRGSFDEPTSKFCVACVTEAFDYLHRLGIIYRDLKPENLILDAEGYLKLVDFGFAKKIGSGQKTWTFCGTPEYVAPEVILNKGHDFSVDFWSLGILVYELLTGNPPFSGVDQMMTYNLILKGIEKMDFPRKITRRPEDLIRRLCRQNPTERLGNLKNGINDIKKHRWLNGFNWEGLKARSLPSPLQRELKGPIDHSYFDKYPPEKGMPPDELSGWDKDF
# B5: PGM2 (protein, UniProt Q96G03 1-612)
# chain: MAAPEGSGLGEDARLDQETAQWLRWDKNSLTLEAVKRLIAEGNKEELRKCFGARMEFGTAGLRAAMGPGISRMNDLTIIQTTQGFCRYLEKQFSDLKQKGIVISFDARAHPSSGGSSRRFARLAATTFISQGIPVYLFSDITPTPFVPFTVSHLKLCAGIMITASHNPKQDNGYKVYWDNGAQIISPHDKGISQAIEENLEPWPQAWDDSLIDSSPLLHNPSASINNDYFEDLKKYCFHRSVNRETKVKFVHTSVHGVGHSFVQSAFKAFDLVPPEAVPEQKDPDPEFPTVKYPNPEEGKGVLTLSFALADKTKARIVLANDPDADRLAVAEKQDSGEWRVFSGNELGALLGWWLFTSWKEKNQDRSALKDTYMLSSTVSSKILRAIALKEGFHFEETLTGFKWMGNRAKQLIDQGKTVLFAFEEAIGYMCCPFVLDKDGVSAAVISAELASFLATKNLSLSQQLKAIYVEYGYHITKASYFICHDQETIKKLFENLRNYDGKNNYPKACGKFEISAIRDLTTGYDDSQPDKKAVLPTSKSSQMITFTFANGGVATMRTSGTEPKIKYYAELCAPPGNSDPEQLKKELNELVSAIEEHFFQPQKYNLQPKAD
# B6: RETSAT (protein, UniProt Q6NUM9 19-610)
# chain: KVYLGLFSGSSPNPFSEDVKRPPAPLVTDKEARKKVLKQAFSANQVPEKLDVVVIGSGFGGLAAAAILAKAGKRVLVLEQHTKAGGCCHTFGKNGLEFDTGIHYIGRMEEGSIGRFILDQITEGQLDWAPLSSPFDIMVLEGPNGRKEYPMYSGEKAYIQGLKEKFPQEEAIIDKYIKLVKVVSSGAPHAILLKFLPLPVVQLLDRCGLLTRFSPFLQASTQSLAEVLQQLGASSELQAVLSYIFPTYGVTPNHSAFSMHALLVNHYMKGGFYPRGGSSEIAFHTIPVIQRAGGAVLTKATVQSVLLDSAGKACGVSVKKGHELVNIYCPIVVSNAGLFNTYEHLLPGNARCLPGVKQQLGTVRPGLGMTSVFICLRGTKEDLHLPSTNYYVYYDTDMDQAMERYVSMPREEAAEHIPLLFFAFPSAKDPTWEDRFPGRSTMIMLIPTAYEWFEEWQAELKGKRGSDYETFKNSFVEASMSVVLKLFPQLEGKVESVTAGSPLTNQFYLAAPRGACYGADHDLGRLHPCVMASLRAQSPIPNLYLTGQDIFTCGLVGALQGALLCSSAILKRNLYSDLKNLDSRIRAQKKKN
# B7: PSAT1 (protein, UniProt Q9Y617 1-370)
# chain: MDAPRQVVNFGPGPAKLPHSVLLEIQKELLDYKGVGISVLEMSHRSSDFAKIINNTENLVRELLAVPDNYKVIFLQGGGCGQFSAVPLNLIGLKAGRCADYVVTGAWSAKAAEEAKKFGTINIVHPKLGSYTKIPDPSTWNLNPDASYVYYCANETVHGVEFDFIPDVKGAVLVCDMSSNFLSKPVDVSKFGVIFAGAQKNVGSAGVTVVIVRDDLLGFALRECPSVLEYKVQAGNSSLYNTPPCFSIYVMGLVLEWIKNNGGAAAMEKLSSIKSQTIYEIIDNSQGFYVCPVEPQNRSKMNIPFRIGNAKGDDALEKRFLDKALELNMLSLKGHRSVGGIRASLYNAVTIEDVQKLAAFMKKFLEMHQL
# B8: UGP2 (protein, UniProt Q16851 1-508)
# chain: MSRFVQDLSKAMSQDGASQFQEVIRQELELSVKKELEKILTTASSHEFEHTKKDLDGFRKLFHRFLQEKGPSVDWGKIQRPPEDSIQPYEKIKARGLPDNISSVLNKLVVVKLNGGLGTSMGCKGPKSLIGVRNENTFLDLTVQQIEHLNKTYNTDVPLVLMNSFNTDEDTKKILQKYNHCRVKIYTFNQSRYPRINKESLLPVAKDVSYSGENTEAWYPPGHGDIYASFYNSGLLDTFIGEGKEYIFVSNIDNLGATVDLYILNHLMNPPNGKRCEFVMEVTNKTRADVKGGTLTQYEGKLRLVEIAQVPKAHVDEFKSVSKFKIFNTNNLWISLAAVKRLQEQNAIDMEIIVNAKTLDGGLNVIQLETAVGAAIKSFENSLGINVPRSRFLPVKTTSDLLLVMSNLYSLNAGSLTMSEKREFPTVPLVKLGSSFTKVQDYLRRFESIPDMLELDHLTVSGDVTFGKNVSLKGTVIIIANHGDRIDIPPGAVLENKIVSGNLRILDH
# B9: APEH (protein, UniProt P13798 1-732)
# chain: MERQVLLSEPEEAAALYRGLSRQPALSAACLGPEVTTQYGGQYRTVHTEWTQRDLERMENIRFCRQYLVFHDGDSVVFAGPAGNSVETRGELLSRESPSGTMKAVLRKAGGTGPGEEKQFLEVWEKNRKLKSFNLSALEKHGPVYEDDCFGCLSWSHSETHLLYVAEKKRPKAESFFQTKALDVSASDDEIARLKKPDQAIKGDQFVFYEDWGENMVSKSIPVLCVLDVESGNISVLEGVPENVSPGQAFWAPGDAGVVFVGWWHEPFRLGIRFCTNRRSALYYVDLIGGKCELLSDDSLAVSSPRLSPDQCRIVYLQYPSLIPHHQCSQLCLYDWYTKVTSVVVDVVPRQLGENFSGIYCSLLPLGCWSADSQRVVFDSAQRSRQDLFAVDTQVGTVTSLTAGGSGGSWKLLTIDQDLMVAQFSTPSLPPTLKVGFLPSAGKEQSVLWVSLEEAEPIPDIHWGIRVLQPPPEQENVQYAGLDFEAILLQPGSPPDKTQVPMVVMPHGGPHSSFVTAWMLFPAMLCKMGFAVLLVNYRGSTGFGQDSILSLPGNVGHQDVKDVQFAVEQVLQEEHFDASHVALMGGSHGGFISCHLIGQYPETYRACVARNPVINIASMLGSTDIPDWCVVEAGFPFSSDCLPDLSVWAEMLDKSPIRYIPQVKTPLLLMLGQEDRRVPFKQGMEYYRALKTRNVPVRLLLYPKSTHALSEVEVESDSFMNAVLWLRTHLGS
# Target: TRAF3-SBP-6xHis (in transduced human MM 8226 cells) (human) (UniProt Q13114)
# Test: affinity purification with mass spectrometry; mitochondria isolated from 8226 cells transduced with pUB-TRAF3-SBP-6xHis, lysed in 1% CHAPS lysis buffer; TRAF3-SBP-6xHis captured on Streptavidin-Sepharose beads, 5 washes; LC-MS/MS of gel slices; cells transduced with FLAG-TRAF3 as negative control
row,binding,Binder
1,binds,B1
2,binds,B2
3,binds,B3
4,binds,B4
5,binds,B5
6,binds,B6
7,binds,B7
8,binds,B8
9,binds,B9

# No constants are given. Whether binding was seen depends on the method and setting. Binding seen in cells or lysates may run through a third protein. These calls come from enrichment with a bait or labelling near it, and not all partners need be listed.
